The values that follow come from patent publication US11414653.

This data set relates to AtfA (Atf1 homolog) (Aspergillus niger). As to the kind of experiment: EMSA. Conditions: LightShift EMSA, 20 min room temperature, purified recombinant protein, label: 3' biotin.

Construct, isoform or probe ends are uncertain for at least one entry. Negatives hold for the conditions tested.

With “GTCAGGACCCGCGCGCAGACCG / CGGTGTGCGCGCGGGTCCTGAC [EMSA mutated site]”, the binding result (printed strands not perfectly complementary, variant of EMSA Atf1 fungi site (ecm33 promoter)) is reported as “no binding”.

As to “CCGTCGTAGCCCCTGAGCAGGGATAGTCAGGACTTACTGAAAGACCG / CGGTCTTTCAGTAAGTCCTGAC [EMSA Atf1 fungi site (ecm33 promoter)]”, the binding result (6% gel 0.5x TBE) is reported as “binds”.

For the sequence “GTCAGGACTTACAGTAAAGACCG (double strand) [EMSA Atf1 yeast site]”, for the setting “6% gel 0.5x TBE”, the binding result was “binds”.
